Experimental data as given in PubChem BioAssay AID1347426 (Functional Genomics Laboratory (NCATS/FGL), 2020).
The campaign covered roughly 31,000 sequences. About 1,400 (4.5%) were called active.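 Rule for the calls: active = median seed-adjusted z-score above 1 or below -1; inactive = the rest.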 The list shows a part of the results.

assay: Novel Modifiers of Survival Motor Neuron (SMN) Protein: Gene Identification via Genome-wide siRNA Screen; settings: HEK293T SMN2-luciferase reporter, siRNA knockdown, 72 h; actives lie on both sides;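 note: luminescence tracks full-length SMN protein made from the SMN2 reporter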
In short: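 siRNA screen, 10418 genes ×3 siRNAs; 1 pmol/well, lipid reverse transfection into HEK293T SMN2-luc reporter line. 72 h, 37 °C, 5% CO2; ONE-Glo readout. Data: neg-ctrl normalized, log10, MAD; hit = MAD >1.0 or < -1.0.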

| Sequence | median seed-adjusted z-score |
| --- | --- |
| GCAUCUGACAUAAUAGUCATT against SP100 | inactive: -0.235 |
| AGAUGUGACUGGCUGGUCATT against LCN12 | inactive: 0.124 |
| GGAGGUGGUUCAAUUCGAATT against DARS2 | inactive: 0.0673 |
| CGGACCAAGUUAAGCGGAATT against ATP2A1 | inactive: -0.0384 |
| CCACGAUCUAUGAAGGUUATT against MCM9 | inactive: -0.709 |
| GCUUUAUCGAUAUAUACCATT against SLC25A14 | inactive: 0.281 |
| CGAAGACGCAUUUAGUAAATT against HLF | inactive: 0.0548 |
| GGCUCAUUAUUAAUAGAUUTT against HIBADH | inactive: 0.234 |
| CAAAUUCCGAAGCAUCUUATT against RNPEP | inactive: -0.236 |
| GAAGAAUAGUGAUGCUCGATT against GRIA1 | inactive: 0.927 |
| AGAACACGGAGAUUAGUUUTT against FABP7 | inactive: 0.562 |
| GGAUGAUCUUUUUGAUAGATT against TOP1 | inactive: 0.0303 |
| GGUCUUCAGUCGAAUUACATT against ZNF766 | inactive: -0.577 |
| GGAGGAUGACUUGACUGAUTT against FCRLA | inactive: 0.03 |
| GAAUAGACGGCACCAUAGATT against RYR2 | inactive: -0.354 |
| GAUUAGGAGUACAUACGAATT against PAPOLB | inactive: 0.749 |
| GCUACAAUGGUUCUCCAAATT against TFCP2L1 | inactive: -0.246 |
| GCACCAAAGUAAACGCAGATT against TNFRSF11B | inactive: 0.582 |
| CGCACAACUGUCAAAUAUATT against SLC9A5 | inactive: -0.545 |
| CACUUGCUUCAAUCGAAUATT against SMURF2 | inactive: 0.351 |
| GAAUGAAAUCAGAGUAUAATT against RNF125 | inactive: 0.204 |
| GUAUGAAGGAGGUAUCUUUTT against UMPS | inactive: 0.191 |

Fetched one by one from the list above, four records:

| Sequence | median seed-adjusted z-score |
| --- | --- |
| CAAAUUCCGAAGCAUCUUATT against RNPEP | inactive: -0.236 |
| CCACGAUCUAUGAAGGUUATT against MCM9 | inactive: -0.709 |
| CGCACAACUGUCAAAUAUATT against SLC9A5 | inactive: -0.545 |
| AGAACACGGAGAUUAGUUUTT against FABP7 | inactive: 0.562 |

Continuation:

| Sequence | median seed-adjusted z-score |
| --- | --- |
| GGUGUGAACCUGACACGCATT against PYCR2 | inactive: 0.00371 |
| AGCUCGUCAGCUACACCAATT against SLC12A4 | inactive: -0.0667 |
| CAGAGGUUCGAGAAAAUGATT against HK2 | inactive: -0.0135 |
| CCAACUAUCUAACUCCACUTT against UTX | inactive: 0.157 |
| UGACUUUCCUCUCUACGGUTT against SLC10A3 | inactive: -0.25 |
| GCUUUAUGUGGGCUCAUUATT against RBM39 | active: -1.82 |
| GUAUGAGGGUCAUAUUGAATT against MAST2 | inactive: 0.27 |
| GGAGAGUCAUUGUUUGCAATT against LGALS3 | inactive: 0.14 |
| GCACUGUCGUAGCUGAGAATT against CORO1A | inactive: 0.569 |
| GACUGAUGAUGGUCAAGGATT against FMR1 | inactive: 0.504 |
| GCAAUUGUCAUAAAACCAATT against ATM | inactive: 0.22 |
| AACAAUCUGUGACUAUUAATT against SKP1 | inactive: -0.0492 |
| GAGCCGGUGUCUUCAGAUATT against CASQ2 | inactive: 0.4 |
| GGACUUUAUUCGGAAGCUUTT against DAPK2 | inactive: 0.268 |
| CACUUGUGAUGAUAAGGUATT against ENPP2 | inactive: -0.305 |
| GGUAAAAGCUCAAAUGAAUTT against TUBB2B | inactive: 0.935 |
| CAGUCACGCUUUAAUAAGATT against MST101 | inactive: -0.293 |
| AGAUGAAAUUCUCGGAGAATT against SSX6 | inactive: -0.493 |
| UCACGCUGAUGCUCACUGATT against SPHK1 | inactive: -0.249 |
| GCACCUUGCAGGAUUGGAATT against PEAR1 | inactive: 0.071 |
| GGUAAAACCUGACCUGGUATT against DTX4 | inactive: 0.409 |
| CGGGUGAAUUUAUUCGAAATT against FBXW7 | inactive: 0 |

| Sequence | median seed-adjusted z-score |
| --- | --- |
| CAACAGGAGGAAGACUUUATT against HMMR | inactive: 0.389 |
| GAUCCUAAUGGAAAAGGUATT against GRK7 | inactive: 0.288 |
| GAACUACAAGUAUCCUGAATT against EPB42 | inactive: -0.294 |
| GCCGUUCUCUUGCUGGACATT against JRK | inactive: -0.624 |
| GAUUCUACUGUCUUACUAATT against HIATL1 | inactive: 0.327 |
| AUACAGAUGUACAAGGAAATT against PTCH2 | inactive: -0.191 |
| CCCAACUACUGAGCUGAGATT against CD151 | inactive: -0.0305 |
| ACCUUAAACCACCAUUUAUTT against METTL2B | inactive: 0.769 |
| GCAUCGUCAAGGAUUGGAATT against ACTR1A | active: 1.28 |
| GGUGUUGAUUACAGAGUGATT against ARHGDIG | inactive: 0.227 |
| CGAUCUCAUGGUUUCGGGATT against NCAM1 | inactive: 0 |
| CCACCGCUGUUGAAUACAATT against ZNF658 | inactive: 0.091 |
| ACUCUACCCUGACACCUCATT against ERAF | inactive: 0.0453 |
| GCAAAGAUCCCAUACGUCATT against SLC2A9 | inactive: 0.216 |
| AGAUUAUAGAGGAAAUGUUTT against DUT | inactive: -0.0833 |
| GCACUUCUUUUACAUCCAUTT against XYLT2 | inactive: 0.148 |
| GGAUCCAGGAUAACGGAGGTT against BCL2 | inactive: 0 |
| GUGACGGCUUUAGACCUGATT against PRTFDC1 | inactive: 0.493 |
| GAACAGUGAUGACAUGUCUTT against CIB4 | inactive: -0.638 |
| AGAACAUCCUGAUAGACCUTT against PIM2 | inactive: 0.00597 |
| GCUCCUUUCUUAUCAGAGATT against BLK | inactive: -0.274 |
| GGAUGUCUAUGAGACCGGATT against ADAMTSL2 | inactive: 0.806 |

| Sequence | median seed-adjusted z-score |
| --- | --- |
| GAGCAUUCCUUUUCGAUCATT against DHRS7B | inactive: 0.294 |
| GACCAUCUUUCACGAAUAUTT against MAP3K9 | inactive: -0.498 |
| GCACUGUACUCAGCUCUGUTT against SLC7A7 | inactive: 0.209 |
| GAGCAGAUCGAGAUCAAAATT against EVI5L | inactive: 0.0497 |
| AGAGGACUUCGCUCGCUUATT against LGI4 | inactive: -0.239 |
| GCUUAUUCUGUACAGUAAATT against GPR103 | inactive: 0 |
| GAGGAUCACUGCAAAGGGATT against NECAP2 | inactive: -0.539 |
| GGAUUUGGAAUGACGGGAATT against GABRG3 | inactive: 0 |
| GGAACAUCUUUAACCGAAUTT against AIFM1 | inactive: 0.0499 |
| CAUUCUGACCGUGAACAAUTT against CTRB1 | inactive: -0.214 |
| GACCAUGACUGAUGCUUAUTT against DUSP10 | inactive: 0.28 |
| ACAAGUACCAGGUCAACAATT against HRASLS3 | inactive: 0.085 |
| CCAUAAUGAUAGAGUUUAATT against SLC24A4 | inactive: 0.0358 |
| CGAACUUGUCUAAAUCAUATT against IRX1 | inactive: 0.673 |
| GAAUUUGCUCGCUACACUATT against GNAS | inactive: -0.531 |
| GUGUUGGAAUGAAGCUAGATT against NR5A2 | inactive: -0.275 |
| GGUCCAAGCUGUUGCUGUUTT against DARC | inactive: 0.0814 |
| CAUCCAUAAUGUACGUGAATT against ITGAE | inactive: -0.0378 |
| GCUUUGACCGUGAUUCUUATT against EREG | inactive: 0.29 |
| CGAUAACUGUAGUUGGAGATT against PRPSAP1 | inactive: 0.224 |
| CCAAAAGAUCGUUCACUCATT against GABRR2 | inactive: 0 |
| GCAAGAGACAUAUCCACAATT against L1CAM | inactive: 0 |

Two entries from above, set out differently.
GAGCAGAUCGAGAUCAAAATT against EVI5L
  median seed-adjusted z-score: inactive: 0.0497
AGAGGACUUCGCUCGCUUATT against LGI4
  median seed-adjusted z-score: inactive: -0.239

Additional entries

| Sequence | median seed-adjusted z-score |
| --- | --- |
| GACAAUCGACCGAAAGCAATT against PPP4C | active: 1.15 |
| GCGAAUUCCUGAUAUAGUUTT against AGPS | inactive: 0.289 |
| CAAUGGAUGUGCAAGCAUUTT against PRKAR2B | inactive: -0.777 |
| ACCUGGUGGUGUCAACUCATT against PTOV1 | inactive: 0.115 |
| CUAUCGCUAUGGGAUAAAATT against CHD4 | inactive: 0.625 |
| GCUUAUGAUUGAUACACCUTT against ATP11B | inactive: 0.0036 |
| GAAUAGAGCCGCGUACAUATT against CLCA4 | inactive: 0.186 |
| GGGUACAAGUUACCUAAUATT against TDRD6 | inactive: 0 |
| GACUAUGAGUUCAUGUGGATT against CKB | inactive: -0.236 |
| CAGCUAAUUCUGAAACAUATT against HSD17B3 | inactive: 0.734 |
| CUACUUUAAGUUCCUGUUUTT against CHST14 | inactive: 0.228 |
| GCUAGAGGCAGUAAAUGGATT against HSPA12B | inactive: -0.141 |
| CGUAUACUACAUCCUCAAATT against ZNF486 | inactive: 0.324 |
| ACAUCAAACUGACCGACUUTT against RPS6KB2 | inactive: 0 |
| AGCUGAGGCAGGUUGGUCATT against ACOT2 | inactive: 0.578 |
| CGAAGGUUAUCGUCACGGUTT against PCDHGA2 | inactive: -0.8 |
| ACACCAGCCUUGCACCUGATT against NCR1 | inactive: -0.26 |
| UGGGAACAAUAAACCAGUATT against ACR | inactive: -0.655 |
| UGUCCGUCUUUGUCAAUAATT against CTSF | inactive: 0.161 |
| CGACAAUAUUCCUUGAUGATT against CTGLF1 | inactive: 0.0231 |
